The nature of data set [1]: Change of mice body weight. Conditions: FIG. 1. The class given is in vivo.
Data set [2] is described as follows: Feed intake, relative weight of organs and of fat pads. Conditions: for Feed intake: Lieber-DeCarli alcoholic liquid diet. The class given is in vivo, mice. The protocol: C-1. The feed intakes of mice were recorded every day (4 mice from each group were randomly picked for recording, and an average of the 4 mice was taken). The changes in the mice body weight were recorded at the last day of every week (i.e., an average of 8 mice from each group), over a four-week period.
C-4. After “C-3” was completed, the mice were sacrificed. The weights of the mice hearts, livers, kidneys, spleens, and abdominal and epididymal fat pads were measured and recorded; the mice livers were washed with sterilized saline, and then the liver appearances were recorded by a camera. The collected organs and feces were stored at −80° C. for the following analysis (recording, sample collection and storage were conducted for all of the 8 mice from each group).
The average values of daily feed intakes of mice of each group recorded in [Preparation Examples] Besides, the weights of mice organ and fat of each group obtained from [Preparation Examples] C-4 were averaged, respectively, and then the average weights (g) were divided by the average body weights of mice in week 4 from the corresponding group to obtain the relative weights of organs and the relative weights of fat.

Molecules are shown by their SMILES. Marks after values point to notes of the source that are not given here.

`CC(C)[C@@H](C)/C=C/[C@@H](C)[C@H]1CC[C@H]2C3=CCC4C[C@@H](O)CC[C@]4(C)C3=CC[C@]12C` (stereo partly drawn) [EK100]: the “Body weight, difference between groups” value in data set [1] (week 1, all groups incl. EK100 1, 5, 10 mg/kg/day, p>0.05) is “did not show any significant differences”. Moreover, the “Body weight compared to control” value in data set [1] (week 2 and week 4, EK100 1, 5, 10 mg/kg/day + alcoholic diet vs control (normal liquid diet), p<0.05) is given as “significantly lower”. Moreover, the “Feed intake compared to control” value in data set [2] (EK100 1, 5, 10 mg/kg/day + alcoholic diet vs control, p<0.05) is listed as “significantly lower”. Moreover, the Feed intake in data set [2] (EK100_1X: 1 mg/kg-body weight/day gavage) is 6.57 ± 0.10^c g/each mouse/day; in data set [2] (EK100_5X: 5 mg/kg-body weight/day gavage), 7.09 ± 0.04^b g/each mouse/day; in data set [2] (EK100_10X: 10 mg/kg-body weight/day gavage), 6.72 ± 0.21^c g/each mouse/day.
